Experimental findings from PubChem BioAssay AID493014 (National Center for Advancing Translational Sciences (NCATS), 2011) are described below.

A short description of the test: qHTS Assay to Find Inhibitors of Chronic Active B-Cell Receptor Signaling. The conditions noted are these: ABC-DLBCL IkBa-CBG/CBR reporter, luminescence ratio (green luciferase fused to IkBa over red control in TMD8 lymphoma cells), 4 h. The method, boiled down: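 TMD8 ABC-DLBCL cells carrying doxycycline-inducible green luciferase fused to IkappaBalpha plus unfused red luciferase were exposed to compounds (up to 46 uM) for 4 hrs at 37C. Activity came from the overlap-corrected green/red luminescence ratio.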
On the technique in general: qHTS replaces the single test concentration by a dilution series.

Where [1] appears, read: measured here: CBR red luminescence, cell number.
Setting [2] is: measured here: IkBa-CBG green luminescence.

The other results are listed elsewhere or left out. Shown are side measurements of this screen, not its main read-out; they come without a call. The list favours compounds with an active or inconclusive main result. The note in brackets gives the kind of curve behind each potency; many fits are weak.

What is called AC50 is the midpoint of the concentration-response curve, whichever way the signal moves.

For the molecule `O=C(Nc1ccccc1F)C1CCN(C(=O)Cc2ccccc2)CC1`, the concentration at half-maximal activity (AC50) under setting [1] was 0.00461 µM [falling, full curve, poor fit].

Turning to `O=C(CNC(=O)c1cccs1)c1ccc(Br)cc1`, the AC50 under setting [1] is 11.2 µM [falling, partial curve].

Take `COc1ccc(Cl)cc1C(=O)Nc1cccc(-c2ccc3nncn3n2)c1`: the AC50 under setting [1] was 6.31 µM [falling, partial curve, poor fit]. The same measure, in the same setting: then `COc1ccccc1N(CC(=O)Nc1ccc(Br)cc1F)S(=O)(=O)c1cccs1`, with 6.51 µM [falling, partial curve]; and `CS(=O)(=O)Nc1ccc(S(=O)(=O)NC2CCCCC2)cc1`, with 35.5 µM [rising, single point].

As for `Cc1ccc(C)c(SCC(=O)Nc2nnc(-c3ccccc3)o2)c1`, the AC50 under setting [1] is 5.17 µM [rising, partial curve, poor fit]. Still for that read-out and setting: for `O=C(CCc1nc2ccccc2c(=O)[nH]1)NCc1cccc(Cl)c1` the value was 29.1 µM [falling, single point]. Same read-out and setting: for `Cc1ccc(/C=C2\SC(=S)N(c3c(C)n(C)n(-c4ccccc4)c3=O)C2=O)cc1` the value was 11.2 µM [falling, partial curve]; for `COC(=O)c1cc(NC(=O)Cc2cc(OC)c(OC)c(OC)c2)cc(C(=O)OC)c1`, 25.1 µM [falling, single point]; for `CCn1nc(C(=O)Nc2ccc(C)c(C)c2)c(Cl)c1Cl`, 5.01 µM [rising, full curve]. On the same count and under the same terms, then `CCN(CC)CCCN=Cc1c(O)n(Cc2ccccc2)c(=O)c2ccccc12`, with 2.59 µM [rising, single point]; and `O=C(c1cc2sccc2n1Cc1ccc(F)cc1)N1CCN(c2nc3ccccc3s2)CC1`, with 0.0116 µM [rising, full curve, poor fit]; and `Cn1nnnc1SCC(=O)Nc1ccc(Oc2ccccc2)cc1`, with 11.6 µM [falling, partial curve, poor fit]. Regarding `CCN1CCN(c2c(Cl)cccc2NC(=O)c2ccc(Br)o2)CC1`, under setting [1], the AC50 was 0.411 µM [falling, full curve, poor fit]. Still for that read-out and setting: for `COc1ccc(C(=O)Nc2cnn(Cc3c(F)cccc3Cl)c2)cc1OC` the value was 0.631 µM [falling, single point]; for `COc1cccc(N=Nc2c(=O)[nH]n3c(=O)c4c([nH]c23)CCC4)c1`, 20.6 µM [falling, partial curve]; for `COC(=O)C1=C(C(=O)c2ccccc2)C(c2ccccc2)n2nnnc2N1` (stereo unspecified), 0.708 µM [rising, full curve, poor fit]. Same read-out and setting: then `COc1ccc(S(=O)(=O)Nc2ccccn2)cc1C`, with 3.98 µM [rising, full curve, poor fit]; and `Cn1c(=O)cc(SCC(=O)N2CCCC2)c2ccc(Cl)cc21`, with 3.55 µM [rising, single point]; and `O=C(NNC(=O)c1cccc(-n2cccc2)c1)c1ccccc1`, with 18.4 µM [rising, partial curve, poor fit]. On the same count and under the same terms, then `CCC(C(=O)O/N=C(\N)c1ccccc1)c1ccccc1` (stereo unspecified), with 20.6 µM [rising, single point]; and `O=C(NCCn1ccc2ccccc21)c1ccc2c(c1)OCO2`, with 10.3 µM [falling, partial curve, poor fit]; and `CS(=O)(=O)c1ccc(C(=O)OCc2nnc(-c3ccc(Cl)cc3)o2)cc1[N+](=O)[O-]`, with 35.5 µM [falling, single point]. For `Cc1nc2ccc(Br)cc2c(-c2ccccc2)c1C(=O)O`, the concentration at half-maximal activity (AC50) under setting [1] was 35.5 µM [rising, single point].

Take `O=C(CNC(=O)c1ccco1)NCC(=O)OCc1cccc(C(=O)Oc2ccccc2)c1`: the AC50 under setting [1] was 18.4 µM [rising, partial curve, poor fit]. The same measure, in the same setting: for `CC1CN(C(=O)c2ccccc2)OC(c2ccc3c(c2)OCO3)O1` (stereo unspecified) the value was 35.5 µM [falling, single point]; for `O=S(=O)(NCc1csc(-c2ccccc2)n1)c1ccc(Cl)s1`, 29.1 µM [rising, single point]. Same read-out and setting: then `CC1CCN(C(=O)CN(c2ccc3c(c2)OCCO3)S(=O)(=O)c2ccccc2)CC1`, with 35.5 µM [falling, single point]; and `Cn1c(N)c(C(=O)COC(=O)C2(c3ccc(F)cc3)CCCC2)c(=O)n(C)c1=O`, with 29.1 µM [rising, single point]. The same measure, in the same setting: then `COc1cccc(C(=O)OCC(=O)c2c[nH]c3ccccc23)c1OC`, with 18.4 µM [falling, single point]; and `O=C(O)c1ccc(Cl)c(S(=O)(=O)NCC2CCCO2)c1` (stereo unspecified), with 2.31 µM [rising, single point]; and `O=C(Nc1ccc(N2CCOCC2)cc1N1CCOCC1)c1cccs1`, with 2.31 µM [falling, partial curve, poor fit].

As for `O=C(CSc1ncccc1-c1nc2ccccc2[nH]1)N1CCN(c2ccccc2F)CC1`, under setting [1], the AC50 is 1.26 µM [falling, full curve, poor fit]. Same read-out and setting: then `CC1CCCC(C)N1C(=O)CSc1nnnn1-c1cccc2c1CCCC2` (stereo unspecified), with 35.5 µM [falling, partial curve, poor fit].

As to `COc1ccccc1C(=O)Nc1nnc(-c2ccccc2)s1`, the AC50 under setting [1] was 2 µM [falling, partial curve]. Still for that read-out and setting: for `CCN(CC)C(=O)CCSc1nnc(-c2ccncc2)o1` the value was 0.00461 µM [rising, full curve, poor fit]; for `Cc1ccc(OCC(=O)Nc2ccc(Cl)c(-c3nc4ncccc4o3)c2)c(C)c1`, 11.2 µM [falling, partial curve, poor fit]. On the same count and under the same terms, for `CC(C)NC(=O)CC(=O)N/N=C/c1c(F)cccc1Cl` the value was 12.6 µM [rising, single point].

Consider `CCOc1ccc(CNC(=O)CCCn2nc(CC)n3c(cc4occc43)c2=O)cc1`, for which, under setting [1], the AC50 was 6.31 µM [rising, single point]. For `C[C@]12C=CC(=O)C=C1CC[C@@H]1[C@@H]2[C@@H](O)C[C@@]2(C)[C@H]1CC[C@]2(O)C(=O)COC(=O)CCC(=O)O`, the AC50 is, setting by setting: under setting [1], 6.51 µM [rising, partial curve]; under setting [2], 7.31 µM [falling, partial curve, poor fit]. On to `Cc1cc2ncn(-c3ncnc4sc5c(c34)CCC(C)C5)c2cc1C` (stereo unspecified), for which the AC50 under setting [1] is 17.8 µM [falling, partial curve, poor fit]. The same measure, in the same setting: then `COc1ccccc1Nc1nnc(SCC(=O)c2cc(C)n(CC3CCCO3)c2C)s1` (stereo unspecified), with 35.5 µM [falling, partial curve, poor fit]; and `Cc1cc(N2C(=O)CC(N3CCN(c4ccc(C(=O)c5cccs5)cc4)CC3)C2=O)no1` (stereo unspecified), with 16.4 µM [falling, single point]; and `CC1(C)OC2CC3C4CC(F)C5=CC(=O)C=CC5(C)C4(F)C(O)CC3(C)C2(C(=O)CO)O1` (stereo unspecified), with 0.355 µM [rising, full curve, poor fit]. On the same count and under the same terms, then `CC(C)(C)NC(=S)NNC(=O)[C@H]1C[C@@H]1c1ccccc1`, with 8.91 µM [rising, partial curve, poor fit]; and `Cc1cc(C2CC(=O)Nc3ccccc3S2)c(C)s1` (stereo unspecified), with 3.55 µM [rising, full curve, poor fit]. On the same count and under the same terms, then `O=C(O)c1cccc(N2C(=O)CSC2=S)c1`, with 31.6 µM [falling, single point]; and `O=C(CNC(=O)c1ccc2c(c1)OCCO2)N/N=C/c1ccc(Cl)cc1`, with 25.1 µM [falling, partial curve]. Take `COc1cc(S(=O)(=O)N2CCC(O)(c3cccc(C(F)(F)F)c3)CC2)ccc1-n1cnnn1`: the AC50 under setting [1] is 8.2 µM [rising, partial curve, poor fit]. Same read-out and setting: then `O=C(N/N=C/c1cccnc1)c1[nH]ncc1Br`, with 3.98 µM [falling, partial curve]; and `CCOC(=O)c1c(NC(=O)CN2CCCc3ccccc32)sc(C(C)=O)c1C`, with 0.731 µM [rising, full curve, poor fit]. The same measure, in the same setting: then `Cc1cccn2c(=O)c(C=O)c(Sc3ncccn3)nc12`, with 22.4 µM [falling, single point]; and `c1cncc(-c2noc(-c3ccc4ccccc4c3)n2)c1`, with 12.6 µM [falling, single point]; and `COc1ccc(S(=O)(=O)N2N=C(C)Oc3ccccc3C2=O)cc1`, with 12.6 µM [rising, partial curve]. Still for that read-out and setting: for `COc1ccc(C(=O)/C=C/c2ccc3c(c2)OCCO3)cc1` the value was 20 µM [falling, single point]; for `COC(=O)c1cccc(NC(=O)/C=C/c2ccc([N+](=O)[O-])cc2)c1`, 3.66 µM [falling, full curve]. Take `Nc1cc(=O)[nH]c(SCC(=O)Nc2cc(Cl)cc(Cl)c2)n1`: the AC50 runs as follows: under setting [1], 29.1 µM [rising, single point]; under setting [2], 16.4 µM [falling, partial curve, poor fit]. In the case of `COc1ccc(NC(=O)Nc2ccc(Br)cn2)cc1OC`, the AC50 under setting [1] was 6.51 µM [rising, single point].

`CCOc1ccc(N2C(=O)Nc3ccccc3C2(O)C(=O)NCc2ccc3c(c2)OCO3)cc1` (stereo unspecified): the AC50 under setting [1] is 7.94 µM [falling, partial curve, poor fit]. The same measure, in the same setting: for `C(=C\c1nnc(-c2cccs2)o1)/c1ccccc1` the value was 10 µM [falling, partial curve]. Same read-out and setting: then `Cc1ccc(/C=C(\C#N)C(=O)NCC2CCCO2)o1` (stereo unspecified), with 29.1 µM [falling, single point]; and `O=C1/C(=C/c2ccncc2)SC(=S)N1C1CCS(=O)(=O)C1` (stereo unspecified), with 3.98 µM [falling, full curve]; and `Cc1noc(C)c1C(=O)N1CCN(c2ccccc2O)CC1`, with 0.103 µM [rising, full curve]. On the same count and under the same terms, for `CCC(CO)NCC#Cc1ccccc1` (stereo unspecified) the value was 2.82 µM [rising, partial curve, poor fit].
